PubChem BioAssay AID1259326 – Drosophila RNAi Screening Center – 2017

- Aim: 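Knock-downs that shift cellular ATP after a high zinc chloride dose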
- Cells: Drosophila S2R+ cells
- Reagent: long dsRNA against Drosophila genes
- Time to read-out: about 5 days (4 days of RNAi, then 1 day of zinc)
- Treatment: zinc chloride added to 15 mM final for one day
- Read-out: 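Luminescent ATP signal marks surviving cells, read after RNAi for 4 days then 15 mM zinc chloride for 1 day; z-scores are replicate means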
- Reading the numbers: averaged z-score: higher = more ATP than other wells, i.e. more surviving cells, after zinc; ATP luminescence: higher = more ATP, i.e. more surviving cells
- Call rule: 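Called active when the averaged z-score lies outside -1.5 to 1.5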
This is one part, drawn at random, of 573 reagents. In the full data, 39 (6.8%) are marked active. 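All actives have raised ATP, meaning more surviving cells; in these data active calls sit at averaged z-scores near 1.5 or above.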 Raw values are not corrected between plates. Unmarked entries are inactive. The numbers tell different reagents against one gene apart. No sequences are given here. The record does not give: the amount of reagent.

| target | reagent no. | averaged z-score | ATP luminescence, replicate 1 | ATP luminescence, replicate 2 |
| --- | --- | --- | --- | --- |
| aPKC (GeneID 47594) | 1 | 0.296 | 95348 | 84266 |
| aPKC (GeneID 47594) | 2 | -0.127 | 72260 | 85964 |
| aPKC (GeneID 47594) | 3 | -0.316 | 84217 | 73580 |
| Cyt-c1L (GeneID 43457) | 1 | 0.292 | 97990 | 79926 |
| Cyt-c1L (GeneID 43457) | 2 | 0.215 | 87972 | 80981 |
| Cyt-c1L (GeneID 43457) | 3 | 0.0197 | 70596 | 80956 |
| sima (GeneID 43580) | 1 | -0.236 | 93598 | 70493 |
| sima (GeneID 43580) | 2 | 0.00023 | 71951 | 77494 |
| sima (GeneID 43580) | 3 | 0.285 | 93262 | 75879 |
| Gfat1 (GeneID 3354921) | 1 | 0.00471 | 89001 | 85090 |
| Gfat1 (GeneID 3354921) | 2 | -0.586 | 74112 | 55453 |
| Gfat1 (GeneID 3354921) | 3 | -0.115 | 63101 | 81179 |
| Abcd3 (GeneID 32992) | 1 | 0.15 | 1.02e5 | 73426 |
| Abcd3 (GeneID 32992) | 2 | 3.25 (active) | 1.64e5 | 1.05e5 |
| Abcd3 (GeneID 32992) | 3 | -0.284 | 67082 | 69035 |
| Naa15-16 (GeneID 32934) | 1 | -0.218 | 96378 | 69979 |
| Naa15-16 (GeneID 32934) | 2 | 0.0897 | 82379 | 70582 |
| Naa15-16 (GeneID 32934) | 3 | -0.519 | 64830 | 63652 |
| grp (GeneID 34993) | 1 | -0.376 | 85639 | 80716 |
| grp (GeneID 34993) | 2 | 0.985 | 85004 | 94799 |
| grp (GeneID 34993) | 3 | -0.131 | 73717 | 75947 |
| Parp1 (GeneID 3355109) | 1 | -0.204 | 87611 | 79755 |
| Parp1 (GeneID 3355109) | 2 | -0.582 | 86342 | 42696 |
| Parp1 (GeneID 3355109) | 3 | 0.101 | 75278 | 81497 |
| Snap25 (GeneID 3355084) | 1 | -0.137 | 97853 | 76530 |
| Snap25 (GeneID 3355084) | 2 | -0.412 | 74712 | 70836 |
| Snap25 (GeneID 3355084) | 3 | -0.0143 | 68366 | 75261 |
| CCT7 (GeneID 41054) | 1 | -0.0428 | 89824 | 87937 |
| CCT7 (GeneID 41054) | 2 | 0.335 | 87920 | 72448 |
| CCT7 (GeneID 41054) | 3 | 0.656 | 80526 | 93765 |
